This passage reports binding signal results from PMC7819943, “Rice protein-binding microarrays: a tool to detect cis-acting elements near promoter regions in rice”.

Protein sequences, listed by entry. Tags and fused reporters are not part of them.
UniProt Q0JBA9, entry or part of it: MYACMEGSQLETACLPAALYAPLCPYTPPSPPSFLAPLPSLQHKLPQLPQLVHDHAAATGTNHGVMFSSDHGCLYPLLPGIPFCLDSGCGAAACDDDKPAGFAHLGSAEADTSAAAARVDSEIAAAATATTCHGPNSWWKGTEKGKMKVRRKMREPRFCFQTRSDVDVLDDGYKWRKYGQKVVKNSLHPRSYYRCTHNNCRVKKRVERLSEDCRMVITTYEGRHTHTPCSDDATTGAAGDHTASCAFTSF

This is one part of the list.

The target of the experiment is OsWRKY34 (Oryza sativa, UniProt Q0JBA9 1-250). The experiment can be described thus: protein-binding microarray (RPBM); PBS, 2% BSA, 51.3 ng/ul salmon testes DNA, 50 uM zinc acetate, 200 nM TF, 25 C, 1 h; high values mean tight binding. Conditions: protein: recombinant; tags: N-terminal polyhistidine and DsRed monomer fusion (pET32a); label: CyDye5-dUTP incorporated in the synthesized complementary strand; 3' TTTTT single-stranded linker to array surface; dsDNA, one strand shown. The method, boiled down:
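For the binding signal, per-feature fluorescence intensity was read in arbitrary units on an Axon 4000B scanner. Before scanning, a 2% BSA-blocked custom Agilent array made double-stranded with Cy5-dUTP was washed after 1 h at 25 °C with 200 nM protein and 50 µM zinc acetate. The proteins were Ni–NTA-purified transcription factors with N-terminal polyhistidine and DsRed fusions, expressed in E. coli BL21-CodonPlus.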
In the case of “CTCACAGACCAACACATGTCTTTTCTGCACACTTTGTCCTCGGAGTCACCTAGTGCAG”, the binding signal is 9260 fluorescence intensity (a.u.).

In the case of “CCCTAGCCGCGACCATTCCTCTGCCTGCTCTCCTCCTCTCCGGAGTCACCTAGTGCAG”, the binding signal was 9330 fluorescence intensity (a.u.). Consider “GGAAAGCCTATGGTGCGCCAGATGGTGTACACGCCCGTGTCGGAGTCACCTAGTGCAG”, for which the binding signal was 8140 fluorescence intensity (a.u.). Consider “CTCCATTCCTCAATGTTATGTGGACCTGAACTCACATGTCCGGAGTCACCTAGTGCAG”, for which the binding signal was 8360 fluorescence intensity (a.u.). For the sequence “AATTATGGCCGCATTTATGTTGTCGGTATCACCCGTATCACGGAGTCACCTAGTGCAG”, the binding signal was 8640 fluorescence intensity (a.u.). As for “TATTTGCTACCAATCCACTTCTCTCTTTCTCTTCCATTTCCGGAGTCACCTAGTGCAG”, the binding signal is 9120 fluorescence intensity (a.u.). Regarding “TTCCTCACCTTGCCACTGTCGGTTCTTGCCTCTTTCTTTGCGGAGTCACCTAGTGCAG”, the binding signal is 13900 fluorescence intensity (a.u.). As to “AACATTTCCTCTGAGTCTATCTCTCTCATCTGATTCTTGCCGGAGTCACCTAGTGCAG”, the binding signal is 8800 fluorescence intensity (a.u.).

In the case of “CAATTCTAGGTTTTTAACACTATTATCCGATATCCCTACTCGGAGTCACCTAGTGCAG”, the binding signal was 8880 fluorescence intensity (a.u.). In the case of “GTGGCTTGATCTCTAGTTAATTACCTCCTCCCATATATGACGGAGTCACCTAGTGCAG”, the binding signal was 8400 fluorescence intensity (a.u.). Regarding “TTCTTCTTGGCTGCTGTGCTGGTGGTCGTCGCCATGGCGTCGGAGTCACCTAGTGCAG”, the binding signal is 10200 fluorescence intensity (a.u.).

For “CTCTTGTTGTTGTGTTCCTTACTGATACTTTGCTAAGTATCGGAGTCACCTAGTGCAG”, the binding signal is 9080 fluorescence intensity (a.u.). The result for “GAGTTATCCTCACCACCCACCGCTCGTCGCCTCCACTCCGCGGAGTCACCTAGTGCAG” reads 8120 fluorescence intensity (a.u.); that for “CTAAACAAAACACATCACACGTCACGTTCAATCAAACTCACGGAGTCACCTAGTGCAG”, 9150 fluorescence intensity (a.u.); that for “CACGATGTACGTTCTTGTTCCTTCCACCTGTCTGCTATTTCGGAGTCACCTAGTGCAG”, 11100 fluorescence intensity (a.u.). Consider “GAACCACATGCGGGCCATTTCTTTGATCGTCACCAAAAGCCGGAGTCACCTAGTGCAG”, for which the binding signal was 8320 fluorescence intensity (a.u.). Regarding “CCCTCTTCCTCGTTTTCTGCGCGCACGTTTTTCGAACTGCCGGAGTCACCTAGTGCAG”, the binding signal is 8610 fluorescence intensity (a.u.).

For the sequence “CTACACCCGTCTCGATCTTTCGCTCAATTCCGCTTTAATTCGGAGTCACCTAGTGCAG”, the binding signal was 14700 fluorescence intensity (a.u.). For the sequence “CTACTGTTTGCAGCTGGGTTTTGGTTTGATCCATGGTTTTCGGAGTCACCTAGTGCAG”, the binding signal was 8310 fluorescence intensity (a.u.).

As for “TGGGTTAATTGGGTTGGGTGGGCCGCTGCCTATGTGGCGGCGGAGTCACCTAGTGCAG”, the binding signal was 14800 fluorescence intensity (a.u.). The result for “GGTTGCTTTATTTACACTATTAGTTAGCCCTAATATTATTCGGAGTCACCTAGTGCAG” reads 10700 fluorescence intensity (a.u.). The result for “CTTTTCTTTTGTTAGTTTTTTGTTTTTCTATCAAACTAATCGGAGTCACCTAGTGCAG” reads 8370 fluorescence intensity (a.u.); that for “GTTAGTCCACTCAATACACTCATTGCCTCATCATCGTGTCCGGAGTCACCTAGTGCAG”, 9450 fluorescence intensity (a.u.). Consider “TCGCTTTCAGAATTAGTTTGGTTGGGGTGAAATTTCTTGGCGGAGTCACCTAGTGCAG”, for which the binding signal was 9020 fluorescence intensity (a.u.).

As to “TCCACGAGTACTTGTACTCCTATACTACTCCATTTGTTTTCGGAGTCACCTAGTGCAG”, the binding signal was 9560 fluorescence intensity (a.u.). Consider “CAGACAAAGGGTGTGTTTAGTTGACGTCAAAATTGTAAGTCGGAGTCACCTAGTGCAG”, for which the binding signal is 8760 fluorescence intensity (a.u.). As for “TACTGAATCACACCTTTTGTTTCTTCCAGCACTGTACTCTCGGAGTCACCTAGTGCAG”, the binding signal was 9870 fluorescence intensity (a.u.).

As for “TAAACCTAACTTAACCACCTACTACTTCAGCTAAAGCTTACGGAGTCACCTAGTGCAG”, the binding signal was 8360 fluorescence intensity (a.u.). The result for “CATAACCATTAGCATCGCACTCAGGGGCGGGCCCACTATTCGGAGTCACCTAGTGCAG” reads 10400 fluorescence intensity (a.u.). For the sequence “GTATTAAACTCGCTCAAGTAACTCCTGCACACCGCAGTCACGGAGTCACCTAGTGCAG”, the binding signal was 8630 fluorescence intensity (a.u.). With “TTTTTCATCCGACAATTGAAAAGGGCTATAATTTCTTTTTCGGAGTCACCTAGTGCAG”, the binding signal was 8590 fluorescence intensity (a.u.).

In the case of “TCTAATGATCAACTCATCTACTGCTAGTTTTGTTAAACCCCGGAGTCACCTAGTGCAG”, the binding signal was 9010 fluorescence intensity (a.u.). Consider “TGGGTATTGGGTATTATATTGCGAGAGATAGAGAGAGATGCGGAGTCACCTAGTGCAG”, for which the binding signal is 10300 fluorescence intensity (a.u.). For “CGCCACAGCTCGTAATGTACAGCACCGATCACACCGATACCGGAGTCACCTAGTGCAG”, the binding signal is 8520 fluorescence intensity (a.u.). Consider “TTTCGTGTACCCACATGCCTAGCTATCTCGTATGCACATCCGGAGTCACCTAGTGCAG”, for which the binding signal was 9830 fluorescence intensity (a.u.). Turning to “CGGATGCTCTCGTTTCTCCAGCGTCAATCGCGCCCGCTTACGGAGTCACCTAGTGCAG”, the binding signal is 9490 fluorescence intensity (a.u.). The result for “TGGATGTGGTTTTAATTTGGTTTTAATATTCTTTTTAGACCGGAGTCACCTAGTGCAG” reads 11700 fluorescence intensity (a.u.). For the sequence “GTTGTTTAGTAAGTCTAATGGGTCATTTGCATTGTATAGTCGGAGTCACCTAGTGCAG”, the binding signal is 9620 fluorescence intensity (a.u.). As to “ATTCTCAAGTTTGAATTGGGTGTATTGGGTTGGGCTAAATCGGAGTCACCTAGTGCAG”, the binding signal is 16700 fluorescence intensity (a.u.). In the case of “AGGAGTGTCTGGTTGGTTTCCGGGGTGTGTTGGGTGACTCCGGAGTCACCTAGTGCAG” it was 29500 fluorescence intensity (a.u.); in that of “ACGACGAGCTCCATGGTCTCCGCGCGGCGCGCGCTCCTTCCGGAGTCACCTAGTGCAG”, 12100 fluorescence intensity (a.u.). “GAGATTAGTGGTGTGGTTTTCTTATCGATTTGTGCATTGGCGGAGTCACCTAGTGCAG”: the binding signal was 8990 fluorescence intensity (a.u.).
